Assay results published in ChEMBL document CHEMBL1128393 (J Med Chem, 1995).

Molecular target: T1, Cytochrome P450 11B2, mitochondrial (Rattus norvegicus, UniProt P30099)
T1 sequence (P30099 whole entry): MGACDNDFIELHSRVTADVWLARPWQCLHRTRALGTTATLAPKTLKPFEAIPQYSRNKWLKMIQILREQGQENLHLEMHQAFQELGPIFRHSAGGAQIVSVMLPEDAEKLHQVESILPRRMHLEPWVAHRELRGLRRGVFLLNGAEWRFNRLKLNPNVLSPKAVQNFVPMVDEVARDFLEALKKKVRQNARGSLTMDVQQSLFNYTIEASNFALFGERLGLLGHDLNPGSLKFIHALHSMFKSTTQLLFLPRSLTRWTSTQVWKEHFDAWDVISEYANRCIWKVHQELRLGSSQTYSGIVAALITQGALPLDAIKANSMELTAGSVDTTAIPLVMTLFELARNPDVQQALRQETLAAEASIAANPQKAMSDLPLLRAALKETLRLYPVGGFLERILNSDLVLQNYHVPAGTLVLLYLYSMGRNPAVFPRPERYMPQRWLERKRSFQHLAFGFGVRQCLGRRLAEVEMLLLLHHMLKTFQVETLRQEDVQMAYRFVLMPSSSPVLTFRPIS

With N#Cc1ccc(C2CCCc3cncn32)cc1 (stereo unspecified) [FADROZOLE] as the compound, how does the IC50 read?
Its IC50 is 600 nM.
